Data on 9 molecules can be found in PMC12423330.

Chains of the proteins cited; added tags and fusions are not shown.
UniProt Q8BRC6: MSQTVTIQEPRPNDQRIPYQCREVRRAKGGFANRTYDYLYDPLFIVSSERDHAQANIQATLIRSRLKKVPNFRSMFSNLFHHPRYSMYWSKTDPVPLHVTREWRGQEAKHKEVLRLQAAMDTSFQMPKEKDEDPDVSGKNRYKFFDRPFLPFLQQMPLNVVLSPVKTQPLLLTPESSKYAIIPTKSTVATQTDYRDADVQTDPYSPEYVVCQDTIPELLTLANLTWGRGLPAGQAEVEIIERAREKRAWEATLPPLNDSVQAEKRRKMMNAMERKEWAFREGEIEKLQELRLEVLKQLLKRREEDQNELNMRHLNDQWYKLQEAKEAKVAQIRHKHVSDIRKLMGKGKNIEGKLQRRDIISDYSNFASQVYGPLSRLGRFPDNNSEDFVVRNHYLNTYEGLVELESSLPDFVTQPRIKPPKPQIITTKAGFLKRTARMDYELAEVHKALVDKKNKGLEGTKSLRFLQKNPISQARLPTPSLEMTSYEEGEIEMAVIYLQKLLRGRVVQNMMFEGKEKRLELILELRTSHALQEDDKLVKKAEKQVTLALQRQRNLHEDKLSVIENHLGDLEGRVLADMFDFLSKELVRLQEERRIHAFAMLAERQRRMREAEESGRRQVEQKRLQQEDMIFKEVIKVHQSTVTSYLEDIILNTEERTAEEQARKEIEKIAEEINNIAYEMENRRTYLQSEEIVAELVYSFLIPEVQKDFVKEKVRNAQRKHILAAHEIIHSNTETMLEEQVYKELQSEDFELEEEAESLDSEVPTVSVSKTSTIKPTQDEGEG
UniProt A0JP43: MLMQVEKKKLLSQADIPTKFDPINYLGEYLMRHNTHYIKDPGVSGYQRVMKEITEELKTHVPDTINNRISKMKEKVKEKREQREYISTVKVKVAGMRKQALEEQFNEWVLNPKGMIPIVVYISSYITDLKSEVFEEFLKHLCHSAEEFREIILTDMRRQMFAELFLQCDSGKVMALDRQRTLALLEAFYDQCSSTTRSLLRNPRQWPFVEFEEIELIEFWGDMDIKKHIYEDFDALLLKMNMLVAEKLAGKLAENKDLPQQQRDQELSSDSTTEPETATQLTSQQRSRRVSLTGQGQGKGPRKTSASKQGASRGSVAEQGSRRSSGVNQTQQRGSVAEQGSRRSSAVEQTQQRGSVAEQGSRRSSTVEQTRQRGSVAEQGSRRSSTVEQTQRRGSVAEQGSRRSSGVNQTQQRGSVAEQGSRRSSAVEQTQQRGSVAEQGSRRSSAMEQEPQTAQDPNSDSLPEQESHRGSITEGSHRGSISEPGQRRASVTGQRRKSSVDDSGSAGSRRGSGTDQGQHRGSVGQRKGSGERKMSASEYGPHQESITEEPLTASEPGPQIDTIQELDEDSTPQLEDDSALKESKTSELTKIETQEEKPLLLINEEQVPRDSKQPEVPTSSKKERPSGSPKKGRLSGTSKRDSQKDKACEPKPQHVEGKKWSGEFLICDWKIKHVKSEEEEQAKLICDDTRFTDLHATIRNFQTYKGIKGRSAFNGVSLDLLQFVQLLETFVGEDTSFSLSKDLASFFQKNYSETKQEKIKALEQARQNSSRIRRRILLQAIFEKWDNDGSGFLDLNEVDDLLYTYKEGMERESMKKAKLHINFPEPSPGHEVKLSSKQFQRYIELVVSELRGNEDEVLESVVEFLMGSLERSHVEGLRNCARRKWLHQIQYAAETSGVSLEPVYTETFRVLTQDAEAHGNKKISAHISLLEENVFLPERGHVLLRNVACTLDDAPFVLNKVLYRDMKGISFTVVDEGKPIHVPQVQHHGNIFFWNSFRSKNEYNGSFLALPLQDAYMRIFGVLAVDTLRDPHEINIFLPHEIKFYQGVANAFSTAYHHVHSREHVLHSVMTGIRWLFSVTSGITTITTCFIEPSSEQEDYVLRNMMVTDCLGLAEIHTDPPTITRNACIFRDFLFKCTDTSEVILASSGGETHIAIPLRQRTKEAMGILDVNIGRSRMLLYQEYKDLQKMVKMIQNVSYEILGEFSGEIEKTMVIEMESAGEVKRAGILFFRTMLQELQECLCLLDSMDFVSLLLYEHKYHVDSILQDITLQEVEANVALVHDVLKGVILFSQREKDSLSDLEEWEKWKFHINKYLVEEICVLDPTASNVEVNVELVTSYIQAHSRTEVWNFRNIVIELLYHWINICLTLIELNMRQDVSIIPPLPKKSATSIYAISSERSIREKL
UniProt Q9D2H2: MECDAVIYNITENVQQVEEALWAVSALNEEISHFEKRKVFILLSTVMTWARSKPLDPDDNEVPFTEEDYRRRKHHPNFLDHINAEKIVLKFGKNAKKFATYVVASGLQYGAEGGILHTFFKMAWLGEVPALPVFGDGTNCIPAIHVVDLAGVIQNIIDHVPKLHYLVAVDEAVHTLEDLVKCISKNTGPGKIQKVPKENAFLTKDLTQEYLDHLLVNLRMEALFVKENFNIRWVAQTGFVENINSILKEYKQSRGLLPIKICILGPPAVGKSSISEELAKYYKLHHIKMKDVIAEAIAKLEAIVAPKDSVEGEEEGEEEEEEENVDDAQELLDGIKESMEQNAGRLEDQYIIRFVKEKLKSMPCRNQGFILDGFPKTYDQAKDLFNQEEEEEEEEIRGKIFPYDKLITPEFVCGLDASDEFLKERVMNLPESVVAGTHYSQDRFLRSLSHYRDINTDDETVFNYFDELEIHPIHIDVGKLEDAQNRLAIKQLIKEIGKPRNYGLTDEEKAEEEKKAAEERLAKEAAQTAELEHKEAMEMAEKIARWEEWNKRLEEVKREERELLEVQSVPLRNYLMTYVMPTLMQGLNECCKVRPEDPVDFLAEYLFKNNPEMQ
UniProt G3UYQ4: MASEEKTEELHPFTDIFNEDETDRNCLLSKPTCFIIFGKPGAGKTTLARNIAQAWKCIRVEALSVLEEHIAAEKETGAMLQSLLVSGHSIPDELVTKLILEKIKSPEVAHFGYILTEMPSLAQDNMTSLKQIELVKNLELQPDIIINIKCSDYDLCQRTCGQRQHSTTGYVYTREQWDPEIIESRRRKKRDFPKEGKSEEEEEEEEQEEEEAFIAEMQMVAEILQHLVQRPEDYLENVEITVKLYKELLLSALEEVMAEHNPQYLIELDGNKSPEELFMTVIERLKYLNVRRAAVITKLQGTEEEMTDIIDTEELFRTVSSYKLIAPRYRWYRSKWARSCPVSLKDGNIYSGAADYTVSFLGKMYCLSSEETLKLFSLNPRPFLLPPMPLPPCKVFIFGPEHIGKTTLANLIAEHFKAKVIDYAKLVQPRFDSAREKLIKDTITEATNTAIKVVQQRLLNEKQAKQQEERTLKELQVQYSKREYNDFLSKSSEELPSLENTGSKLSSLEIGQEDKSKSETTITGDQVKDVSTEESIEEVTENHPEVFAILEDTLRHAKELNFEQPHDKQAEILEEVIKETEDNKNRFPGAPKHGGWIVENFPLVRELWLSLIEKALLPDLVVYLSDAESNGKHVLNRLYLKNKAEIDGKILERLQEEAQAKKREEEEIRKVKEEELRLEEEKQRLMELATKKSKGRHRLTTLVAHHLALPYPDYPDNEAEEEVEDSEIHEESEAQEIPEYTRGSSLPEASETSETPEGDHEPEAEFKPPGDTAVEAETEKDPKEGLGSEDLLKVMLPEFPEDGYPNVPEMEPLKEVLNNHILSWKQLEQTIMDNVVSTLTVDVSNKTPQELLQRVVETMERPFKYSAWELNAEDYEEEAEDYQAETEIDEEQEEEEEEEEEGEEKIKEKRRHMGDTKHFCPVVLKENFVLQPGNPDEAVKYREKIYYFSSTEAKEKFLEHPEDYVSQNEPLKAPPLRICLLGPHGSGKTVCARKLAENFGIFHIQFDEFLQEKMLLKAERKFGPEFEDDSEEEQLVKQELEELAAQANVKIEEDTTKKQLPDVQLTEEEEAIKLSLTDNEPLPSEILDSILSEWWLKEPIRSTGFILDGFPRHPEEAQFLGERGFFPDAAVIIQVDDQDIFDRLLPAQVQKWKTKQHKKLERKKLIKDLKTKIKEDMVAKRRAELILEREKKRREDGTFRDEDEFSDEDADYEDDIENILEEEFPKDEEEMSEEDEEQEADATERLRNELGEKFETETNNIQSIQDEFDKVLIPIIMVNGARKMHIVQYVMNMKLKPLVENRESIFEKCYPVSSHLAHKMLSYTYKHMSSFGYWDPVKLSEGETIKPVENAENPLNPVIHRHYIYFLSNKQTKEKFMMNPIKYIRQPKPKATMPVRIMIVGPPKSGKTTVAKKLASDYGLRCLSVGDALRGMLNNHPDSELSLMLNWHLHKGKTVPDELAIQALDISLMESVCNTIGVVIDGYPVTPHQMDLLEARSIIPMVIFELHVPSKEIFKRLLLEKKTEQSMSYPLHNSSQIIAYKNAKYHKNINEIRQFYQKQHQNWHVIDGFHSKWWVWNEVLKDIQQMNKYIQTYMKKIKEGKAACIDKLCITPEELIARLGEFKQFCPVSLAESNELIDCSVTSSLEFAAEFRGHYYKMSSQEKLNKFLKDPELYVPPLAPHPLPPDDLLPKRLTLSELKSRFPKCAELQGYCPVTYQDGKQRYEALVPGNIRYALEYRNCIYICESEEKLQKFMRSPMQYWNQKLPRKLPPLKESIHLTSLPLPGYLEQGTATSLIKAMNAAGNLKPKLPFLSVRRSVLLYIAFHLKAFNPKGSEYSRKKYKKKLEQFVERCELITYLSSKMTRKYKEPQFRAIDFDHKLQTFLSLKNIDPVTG

No constants are given. Whether binding was seen depends on the method and setting. In cells and extracts the contact can be indirect. A yes stands for co-enrichment or nearness to the bait. Other partners may have been found.

Experiment [1] addresses CFAP91-BioID2-3×FLAG (mouse) (UniProt Q8BRC6). In words: proximity labelling; BioID2 on CFAP91 in mature cauda epididymal spermatozoa of Cfap91-/- TG males, 250 μM biotin, 16 h, 37 °C; lysis in 0.4% SDS sample buffer; streptavidin pull-down; eluates analysed by immunoblotting and MS; WT spermatozoa as control. On the technique in general: Immunoblotting shows a protein as a band on a membrane.

For experiment [2] the target is unchanged. In words: affinity purification with mass spectrometry; IP with an anti-FLAG antibody from testis lysate of Cfap91-/- TG males, WT males as control; Dynabeads Co-Immunoprecipitation Kit; LC-MS/MS.
For experiment [3] the target is unchanged. Described as above. The source holds these as a separate data set.

With EFCAB5 (from UniProt A0JP43 1-1406), the binding result in experiment [1] was “binds”. Turning to AK7 (from UniProt Q9D2H2 1-614), the binding entry in experiment [2] is listed as “binds”.

On to AK9 (from UniProt G3UYQ4 1-1894), for which, in experiment [2], the binding entry was “binds”.

B1: BBS9 (protein, UniProt Q811G0 1-885)
chain: MSLFKARDWWSTVLGEKEEFDQGCLCLADVDNSGNGHDKIIVGSFMGYLRIFSPHSVKAGGGPQAEDLLLEVHLRDPVLQVEVGKFVSGTEMLHLAVLHSRKLCVYSVSGTLGNVEHGNQYQIKLMYEHHLQRTACNMTYGPFGGVKGRDLICIQSLDGMLMVFEQESYAFGRFLPGFLLPGPLAYSPRTDSFITVSSCRQVESYKYQVLAFATDADKKQEMEQQKLGSGKRLVVDWTLNIGEQALDICIFPLNQSASSVFVLGERNFFCLKDNGQIRFMKKLGYNPSCFLPYCSVSEGTINTLIGNHNHMLHIYQDVTLKWATQLPHVPVAVRVGCFHDLKGVIVTLSDDGHLQCSYLGTDPSLFQAPKVESRELNYDELDVELKELQKIIKDVKLQGVWPLTEQEDDLKVSASVSSTLDSVSQATNVEPGADSVPSITVKITLQNRVVLQKVKLSIYVQPPLQLTCDQFTFDFTVPDMTSSVAFSVYLKRNYTPSELEGNAVVSYSRPTDRNPDGIPRVVQCKFRLPLKLICLPGQPSKTASHKLTIDTNKSPVSLLGLFPDFANPSDDDQVNVMGFRLLGGARVTLLASRTSQRYRIQSEQFEDLWLITNELILRLQEHFEKQGTKDFSCSFSGCVPLQEYFELIDHHFELRINGKKLEELLSERAVQFRAIQRRLLTRFRDKTPAPLQHLDTLLDGTYKQVIALADAIEENQDRLLQSFSGLKSATHLLILLIRLWQRLSADQTAILEAAFLPLQEDTQELGWEETVDAAIAYLLKTCLSKSSKEQALNLSSQLNIPKDTSRLKKHITLLCDRLAKGGRLCVSTDAAAPQAMVVPGGCTPIPESDLEERSLDDSTELFTNHKHLMTEPPMPEVSARQGVLE
Regarding B1, in experiment [3], the binding entry is recorded as “binds”.

B2: CATIP (protein, UniProt B9EKE5 1-520)
chain: MGDVTRGEWVVWGLEAGPGETASLHHPGLEDMLLFFPETLAILSDTGEPQGELTIEVQRGKYKDDIGILTHCLLVHASSRGFLDKSLCGSSLLGYLNNNLELMEQHSQEFIKFPVLPMERKMSVLKQDGQFVVTRSVKEGEETKTGVSVFPYKTFKGFVSSAANVVLLRVMAWQQSVPSGARFLALDSEGKLCHCTYKSLGFQTIQVGNQQAKMFIVEQTIHSEEGIPFSCQYYLLPDGHLAKRVQVGSPGCCIITKMPLIREEDVIESPPTFDKKPLVWGEDLELYSKFLDRKEQLRLSHASYLRHHPEAQALVSDFLLFLLLRRPEDVVTFAAEHFRPFAALRSPIPALRSSHQPSPFRTLENEEEEEAKEEEEKEEEEEEEEEIAGEIEGEEEEEEIEEGDDYLYMDEDEDIEDYTYYENYYYNYDEEVDSYDDVNNYDDDDIANVDDNDDIDNYDDDNDDDDDDDDNDDEDDVDDNDDDDVDKVRAKVDNLSVDNDDNDVVNSDNVDVDNDNNNQG
Consider B2, for which, in experiment [3], the binding entry is given as “binds”.

B3: RGS22 (protein, UniProt G3UYX5 1-1258)
chain: MPEKRLSAEPPEVTEEEFENYLATDNFLVDYFNEFLSLPTFPEAIRFNVDYGVFEVVNDAPQLLEKQLKKILQNQQPRNPIYDVVRKGKSDSKSTQKSVPCEDEAINVNYSIMCLKREQGINWIKRERLPAFLESDCYFEYRLAKLISQATWSSTGMNFIVGTNFTPWILRRPPAPPPPSTDEDNYMIMKKFYVSLGQASYTQTKDWFTLAKESENTVTMASLPCCIPHHQTASPVIATASEIFDDGVHPRTIKSLSKSSKAVSELDEEEEGSISMKDSPSQALLRVYLEKKGGKERNLTLHFSSVEEFLDAYIIFILREAIQHITGQSLSDTPEYINYYKVSHVIFDKVPPVPSNKAIVSPPVEMVEEISKDRLENVSLSSESESIGPESRADWCISHRTYDIGNRREFERFKKFLKGTLGERYWWLWMDIERLKVLKDPERHQRHLEKMKKCYLVSSGERYLSAEILSKFKLLHGSRWTADHLKNIQAEVLKPLLLYWAPRFCVTHSASAKNASTELKFWRLRQEKPRKDVDPFPQMATLLPLRPKSCIPQTPEVQGEEINLFQPSKFKKLSKINAGTQQLGRSEPLNAVSSKDGGLEKGSKRLPESTTVVRLTSFTDISECLKPQLERKYTYTEEHNVKTVSNVGALGGFDMENLLQSLYVENRAGFFFTKFCENSGNKLWKHSVYFWFDLQAYHQLFYQETLQPFKVCKQAQYLFATYIAPSASFDIGLHQEGKKDIYMKIQPPFEDLFDTAEEFILLSLLEPWTQMVMSDKMAYKKVELQEETRQLDSACFRKLHALHKETISKKAEDTTGYAMAKLSLSDVSKQTEYWLNVPEGYKHFTFTDLLNNKLEFEHFRQFLESHSSSLDLMCWIDIEQFRRIIFKDQKQREEKSIYIKNKYLNKKYFFGPRSPASLHQQNQIMLLSGGWGRILHEQLDASVLVEIQKHVLNRLENVWLPLFLSSEQFASRQKIKTQMKDIADELLLQRHDRKIGVWKPVESKWISSSCEIIAFRKALLNPVIARQFQRFVALKGDLLENGVLFWQEVQKFKDLCHSHCDESIIHKKITTIINCFINSYIPPALQIDIPVEQAQKILEHRKELGPYVFREAQMTIFGVLFKFWPQFCEFRKNLTDEKIMSVLERRQEHKQKRKASDTEEDKAGKSGVKQYASTTGSLTKPVLGSESLLVLQSYGRQPTWCYSKYIEALEQERILLKIQEEVERKMFTGTSSFTNLLKPSTGSALSLKKNVSLHSIQR
B3: the binding entry in experiment [1] is “binds”.

B4: CFAP251 (protein, UniProt E9Q743 1-1299)
chain: MSDTEENPLEESRESGEMEEEKEEKKEEEEEEEEGEKEKEEEEEEEKGKEEEKEEEKEEGKEEEKKEEEEEKGKKEEEEEEEEEGKGKEEEKEEEKEEEEKEEEKEKEEEEEEEGKGKEEEEEGKEEEEEEKEEEEKEEEKEEEEEEEEEKEEYNPSFEEDALQQSLTEGSLSWEESQEDGEGLEEWVEKEEQREGEEVRGEEESEVRGREEEEGWEEEKSGEEEKSEESERSKERGGEEEGQEKEEAEHEGEREEGREEEEKEKSVEREEEEEEEDTETTETKAGRAKEEKKEKQNKTALVDNIVISHEPPRSSSSLADSPEVSQIYKDNSMKVDDTEEASQKPEDILAQGKDEARLSLEERRKLFQSKGLSAEESLVSVSTEDTLFQKEEDSKVYPLSMTWSFGWNSSLPVYYMREDRRVILYTCAHTAIMYDVVRNTQYHLQGHPNIISCLCVSEDRRWIATADEGPDCLIIIWDSFTGIPVHTIFDSCPEGNGMRSIAITRDSKFLATISDSATQKVCIWKWTLAVETPACTLELPKEYGFQDNLVFNPANNKELVSNSKTQAIYYCWFEDKGILAHSAPVLTEKTFNKLVGKFSQSVFHLKLPQVLSATKEGKLVVWDIHYPSSTSSSAISAFPFIKPRKLVHLQKEAITVLMTIDSYIVTGDIKGNIKFYDHTLSVVNWYSNFKLGAIRTLSFSKTIPSLPTEKSNLPTDCTLRGDLFVVRNFIIGTFDATVYHMTVDGTKLEKLFVEPRDAVYAVSCHPYQPLIAVGSVCGMIKVWDFEKKVYLFSRTFEKGLGVQCLTYNPEGALLGAGFTEGTVYILDAMSLENESPEPFKYSKSSVSHCCFSHDSNYMATADVNFTVAVYMVVVKNGQRVWEYLARLRSHQNSIQSLLFGVHLDSNEPRLLSLGKDRFLIEYNLVKSCKDHLDVLDVHRTDQGNYPTCMIWYPPLTKELFLLICNSGYKVKLFNATTKMCRKTLLGPAYGSPIEHAQVLPVKSTLELQKRYLVFINKDKVGLQILPVDGNPHKTCAIVCHPNGVAGMALSYDGRFAFTAGGQDRSVVQWKINLGALEAAVSLGGEDLTPFYGLVSGGREGKFYRELEDYFYYSQIRSQGIDTMETRQVSEHICLSELPFVMRAIGFYPSEEKIEDMFNEIKFSEYVETGKLIDKINLPDFLKVYLNHRPPFGNTMDGIQNSFNVLGYTNSEGKKAIRREDFLNLLLTKGEHMTEEEMIDCFSTLFGLTPEGWKSEPAATCINGPEICLQKELPEEITAEIFTTEILGLTLSDSSEQLIQ
Consider B4, for which the binding entry in experiment [3] and in experiment [1] was “binds” each time.

B5: MDH1B (protein, UniProt Q5F204 1-500)
chain: MAKFVIAGKANCPYYAKAELLADYLQKNLPDFRIFKITQHPDKWEDWVEDVCERNMWDHRTSPIIWRELLDRGGRGLLLGGYNEFLEHAQLYYGVTSNMTTELMMVIAKENMQTHTEQQLDKETMKDLISPLQVWIASAGTYVCCHLIPLLLSGEVFGMHTEISLTLFDQEQREDCLRSIVMETQDLASPVLRTVSFCTTVKEAFLQAQVIIILDDSTEEEVYSLESCLRSRVPLCRLYGYLIEKNAHKSVKVIVGGKNFVNLKTTLLMQYAPNIASNIIAVALGVEGQAKAVLARKMKTTSANIKDVIIWGNITGNNYVDLRKAKVYNYESAVKGPPGHYHSVLSLIFDREWITKEFVQTLKILSSTGKQFGGILAAHSIATTLKYWYHGSPPGEIVSLGVMSEGQFDIPEGIVFSMPVKFENGTWVVLTDLEDISLSEKTLSRLTGDLIQEKLVACGDLLTFQPIEEDPKDNEPSNTGMNEEKEQPGSDDSDEKNEDQ
Consider B5, for which the binding entry in experiment [3] is “binds”.

B6: AKAP14 (protein, UniProt Q3V0I7 1-536)
chain: MSNKKKFPNQKAKIVENTSTAKTKKPEAPEPKHVTEPKDSKSVEDPKIPVTDQKEKKTVTTIAEPKDKKSETEPKEKKTVTISDPKAKKPAIEKDKRTVTFVTEVKDKRIVTDTKENRIASIDTKEKVPVVVPEVKEKRVQLLDPKEKVAVLPTTPIGSVAHVPHAPPVAHTEHAAPAKPVAPAKPVAPVAPAKPVAPVAPAKPVVPVAPAKPVAPAAPVTSVVRAVPAAPVTPVAPVAPAVPVVPAAPVAPAAPVVPAAPVAPVAPALPVAPVAPVAPALPVAPAVPVAPAVPVAPVVPEVKQKIPVSEVKGKKEVPLRVPELKEIKASSFAPEIKVKKVGSEIKQKAHVKDVKEKKIVPEVKEKKPVVVKKKDGASEVARTVVDGVMAAAVEMVEEARNPIKNIKWLTHGEFTPEKGRKQIEKFVSTWEFQNRWVYYADFIEKKDLIHSYHYIYRVRWSAPTAVRPMARVSANALFTIKFNKSKPADMPVDVSYIFENSELLQRPGEIRFREQWLRDITETKHILLESIPFKVV
For the molecule B6, the binding result in experiment [1] is on record as “binds”.
